Experimental data as given in the supplement of paper PMC10849652.
The list shows a part of the results.

Amino acid sequences for entries named in this document (tags omitted). A change or cut given only in a name is not applied to a line headed by its entry.
UniProt O94830: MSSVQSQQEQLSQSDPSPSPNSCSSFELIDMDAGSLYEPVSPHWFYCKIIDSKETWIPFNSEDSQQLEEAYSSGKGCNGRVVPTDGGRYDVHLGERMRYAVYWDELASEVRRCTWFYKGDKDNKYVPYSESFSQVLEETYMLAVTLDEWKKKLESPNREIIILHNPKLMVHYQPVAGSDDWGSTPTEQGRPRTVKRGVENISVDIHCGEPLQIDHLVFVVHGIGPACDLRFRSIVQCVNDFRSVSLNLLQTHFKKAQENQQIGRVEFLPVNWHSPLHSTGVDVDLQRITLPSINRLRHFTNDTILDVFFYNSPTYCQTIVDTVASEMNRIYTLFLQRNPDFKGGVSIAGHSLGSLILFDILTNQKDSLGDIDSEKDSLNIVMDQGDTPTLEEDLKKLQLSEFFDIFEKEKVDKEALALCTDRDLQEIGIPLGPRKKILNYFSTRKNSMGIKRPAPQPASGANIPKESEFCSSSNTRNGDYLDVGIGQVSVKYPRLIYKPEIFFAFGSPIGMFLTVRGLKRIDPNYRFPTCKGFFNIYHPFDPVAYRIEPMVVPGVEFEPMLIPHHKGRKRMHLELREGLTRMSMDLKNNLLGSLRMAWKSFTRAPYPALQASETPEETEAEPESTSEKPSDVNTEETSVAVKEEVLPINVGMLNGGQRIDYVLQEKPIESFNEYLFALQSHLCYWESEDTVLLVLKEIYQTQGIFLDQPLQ
UniProt O43583: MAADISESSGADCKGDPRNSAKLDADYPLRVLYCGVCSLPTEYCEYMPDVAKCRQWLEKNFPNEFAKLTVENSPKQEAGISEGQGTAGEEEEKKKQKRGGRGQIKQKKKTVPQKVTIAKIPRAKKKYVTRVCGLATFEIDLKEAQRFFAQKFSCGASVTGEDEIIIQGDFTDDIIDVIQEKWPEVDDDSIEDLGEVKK
UniProt Q9NPI6: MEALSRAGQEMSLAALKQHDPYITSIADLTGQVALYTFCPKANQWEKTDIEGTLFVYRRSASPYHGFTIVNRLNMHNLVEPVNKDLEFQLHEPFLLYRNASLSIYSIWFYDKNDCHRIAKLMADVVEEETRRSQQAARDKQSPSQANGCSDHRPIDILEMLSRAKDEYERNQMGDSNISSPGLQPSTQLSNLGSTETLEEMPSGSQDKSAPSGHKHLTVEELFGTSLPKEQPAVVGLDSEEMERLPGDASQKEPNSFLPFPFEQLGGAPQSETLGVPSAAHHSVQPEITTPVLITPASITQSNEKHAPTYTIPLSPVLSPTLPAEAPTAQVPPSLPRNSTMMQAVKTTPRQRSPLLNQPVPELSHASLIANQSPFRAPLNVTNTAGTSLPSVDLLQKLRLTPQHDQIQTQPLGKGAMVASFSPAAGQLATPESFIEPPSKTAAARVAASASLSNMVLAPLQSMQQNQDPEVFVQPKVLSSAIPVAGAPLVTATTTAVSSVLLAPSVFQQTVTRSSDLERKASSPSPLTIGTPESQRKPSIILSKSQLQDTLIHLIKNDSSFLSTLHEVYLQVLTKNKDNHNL
UniProt Q16643: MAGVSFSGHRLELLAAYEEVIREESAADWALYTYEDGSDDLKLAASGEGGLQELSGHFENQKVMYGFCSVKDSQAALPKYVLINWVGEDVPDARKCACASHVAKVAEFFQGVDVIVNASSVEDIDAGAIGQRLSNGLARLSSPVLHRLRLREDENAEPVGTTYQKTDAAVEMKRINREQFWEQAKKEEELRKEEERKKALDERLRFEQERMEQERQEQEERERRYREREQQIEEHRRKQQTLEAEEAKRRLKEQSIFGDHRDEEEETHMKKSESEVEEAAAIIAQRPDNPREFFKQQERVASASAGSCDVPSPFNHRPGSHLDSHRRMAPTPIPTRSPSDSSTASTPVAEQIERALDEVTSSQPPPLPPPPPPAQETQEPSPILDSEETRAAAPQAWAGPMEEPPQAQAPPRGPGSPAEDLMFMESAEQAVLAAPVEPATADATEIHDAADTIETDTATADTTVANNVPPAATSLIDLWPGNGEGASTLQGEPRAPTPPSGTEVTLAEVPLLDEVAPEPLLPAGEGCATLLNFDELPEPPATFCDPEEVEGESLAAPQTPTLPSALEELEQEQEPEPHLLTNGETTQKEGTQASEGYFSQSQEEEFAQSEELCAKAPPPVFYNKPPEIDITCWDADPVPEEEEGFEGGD
UniProt Q07973: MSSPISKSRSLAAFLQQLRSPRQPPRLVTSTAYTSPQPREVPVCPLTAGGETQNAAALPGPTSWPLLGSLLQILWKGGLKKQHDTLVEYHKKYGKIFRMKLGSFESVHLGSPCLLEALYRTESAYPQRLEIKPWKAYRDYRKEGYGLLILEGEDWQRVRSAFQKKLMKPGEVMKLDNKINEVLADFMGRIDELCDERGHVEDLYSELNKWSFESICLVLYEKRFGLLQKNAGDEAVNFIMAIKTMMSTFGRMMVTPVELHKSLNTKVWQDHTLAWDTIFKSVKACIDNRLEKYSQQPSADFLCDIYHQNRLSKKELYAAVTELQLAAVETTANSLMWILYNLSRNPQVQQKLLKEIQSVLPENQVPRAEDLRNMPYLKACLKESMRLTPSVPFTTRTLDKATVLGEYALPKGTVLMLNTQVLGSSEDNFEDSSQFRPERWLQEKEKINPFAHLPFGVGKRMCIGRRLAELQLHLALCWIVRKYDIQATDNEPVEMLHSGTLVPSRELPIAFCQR
UniProt Q9UK59: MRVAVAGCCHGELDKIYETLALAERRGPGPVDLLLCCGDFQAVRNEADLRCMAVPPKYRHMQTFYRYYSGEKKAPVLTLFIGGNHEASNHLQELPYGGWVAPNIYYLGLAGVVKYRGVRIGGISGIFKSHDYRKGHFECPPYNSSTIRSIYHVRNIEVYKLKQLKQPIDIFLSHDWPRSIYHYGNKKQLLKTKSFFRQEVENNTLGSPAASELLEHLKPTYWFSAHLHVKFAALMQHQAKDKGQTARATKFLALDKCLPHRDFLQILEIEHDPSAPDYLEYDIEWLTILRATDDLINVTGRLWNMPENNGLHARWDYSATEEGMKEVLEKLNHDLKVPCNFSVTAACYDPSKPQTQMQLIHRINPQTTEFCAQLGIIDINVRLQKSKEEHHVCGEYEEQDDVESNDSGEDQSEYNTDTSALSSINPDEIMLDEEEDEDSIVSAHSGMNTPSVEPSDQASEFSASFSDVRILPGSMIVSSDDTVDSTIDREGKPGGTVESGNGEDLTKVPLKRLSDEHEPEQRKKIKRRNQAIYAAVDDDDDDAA
UniProt Q9NWV4: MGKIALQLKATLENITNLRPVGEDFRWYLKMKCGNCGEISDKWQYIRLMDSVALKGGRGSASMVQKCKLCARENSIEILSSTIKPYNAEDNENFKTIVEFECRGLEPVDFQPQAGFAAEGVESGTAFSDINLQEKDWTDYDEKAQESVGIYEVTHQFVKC
UniProt Q58WW2: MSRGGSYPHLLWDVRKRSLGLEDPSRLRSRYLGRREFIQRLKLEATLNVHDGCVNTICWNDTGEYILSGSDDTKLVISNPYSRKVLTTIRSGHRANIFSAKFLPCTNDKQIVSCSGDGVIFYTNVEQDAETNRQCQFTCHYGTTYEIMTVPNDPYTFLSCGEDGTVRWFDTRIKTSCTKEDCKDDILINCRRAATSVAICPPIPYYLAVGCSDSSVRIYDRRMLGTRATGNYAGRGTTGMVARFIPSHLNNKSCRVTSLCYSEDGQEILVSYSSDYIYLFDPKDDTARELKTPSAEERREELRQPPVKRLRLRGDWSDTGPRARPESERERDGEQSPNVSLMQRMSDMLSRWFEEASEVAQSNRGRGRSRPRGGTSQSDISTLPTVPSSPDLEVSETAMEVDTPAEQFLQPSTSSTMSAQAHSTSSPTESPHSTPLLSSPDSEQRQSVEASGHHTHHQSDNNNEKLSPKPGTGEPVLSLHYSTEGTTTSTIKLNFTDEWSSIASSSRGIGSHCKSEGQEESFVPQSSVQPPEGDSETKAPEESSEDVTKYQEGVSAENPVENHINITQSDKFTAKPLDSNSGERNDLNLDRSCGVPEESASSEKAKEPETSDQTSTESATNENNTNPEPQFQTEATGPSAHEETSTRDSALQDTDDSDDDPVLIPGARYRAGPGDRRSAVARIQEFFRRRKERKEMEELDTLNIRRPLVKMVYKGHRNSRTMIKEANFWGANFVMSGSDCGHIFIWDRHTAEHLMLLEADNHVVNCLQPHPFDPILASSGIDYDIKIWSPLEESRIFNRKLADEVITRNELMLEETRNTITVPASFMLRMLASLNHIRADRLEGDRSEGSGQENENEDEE
UniProt Q8TCE6, whole entry, looked up: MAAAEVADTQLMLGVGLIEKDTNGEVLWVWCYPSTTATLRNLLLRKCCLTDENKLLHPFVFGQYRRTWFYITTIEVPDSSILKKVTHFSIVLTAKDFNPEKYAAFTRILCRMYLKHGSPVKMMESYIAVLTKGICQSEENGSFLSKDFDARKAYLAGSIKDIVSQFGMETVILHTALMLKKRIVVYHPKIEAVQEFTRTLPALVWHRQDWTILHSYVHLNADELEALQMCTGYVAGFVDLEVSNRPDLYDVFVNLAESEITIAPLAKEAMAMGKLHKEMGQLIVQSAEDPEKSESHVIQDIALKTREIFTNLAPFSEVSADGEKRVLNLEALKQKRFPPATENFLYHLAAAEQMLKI
UniProt O95865: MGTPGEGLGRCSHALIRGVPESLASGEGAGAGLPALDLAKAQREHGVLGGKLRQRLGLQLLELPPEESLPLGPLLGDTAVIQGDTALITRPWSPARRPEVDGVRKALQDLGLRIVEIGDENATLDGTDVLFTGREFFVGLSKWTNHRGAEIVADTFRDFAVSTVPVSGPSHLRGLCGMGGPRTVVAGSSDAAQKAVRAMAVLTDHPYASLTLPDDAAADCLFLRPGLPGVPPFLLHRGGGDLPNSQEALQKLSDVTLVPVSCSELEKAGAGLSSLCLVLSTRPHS
UniProt Q8TEB1, whole entry, looked up: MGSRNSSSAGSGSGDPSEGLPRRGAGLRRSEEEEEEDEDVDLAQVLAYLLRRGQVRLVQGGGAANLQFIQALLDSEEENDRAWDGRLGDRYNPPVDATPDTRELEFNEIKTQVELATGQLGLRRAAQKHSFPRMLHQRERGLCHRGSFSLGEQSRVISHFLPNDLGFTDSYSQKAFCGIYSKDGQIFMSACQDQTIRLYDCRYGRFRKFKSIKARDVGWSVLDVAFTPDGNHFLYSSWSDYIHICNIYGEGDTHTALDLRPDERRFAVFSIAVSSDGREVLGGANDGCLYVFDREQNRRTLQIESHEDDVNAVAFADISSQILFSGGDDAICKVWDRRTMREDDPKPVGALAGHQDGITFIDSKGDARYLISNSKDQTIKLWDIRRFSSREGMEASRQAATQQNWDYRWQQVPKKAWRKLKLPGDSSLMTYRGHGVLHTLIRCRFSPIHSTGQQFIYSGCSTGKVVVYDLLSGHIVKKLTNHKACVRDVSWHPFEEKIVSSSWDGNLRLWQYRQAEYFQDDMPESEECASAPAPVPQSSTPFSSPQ
UniProt Q9UJU6: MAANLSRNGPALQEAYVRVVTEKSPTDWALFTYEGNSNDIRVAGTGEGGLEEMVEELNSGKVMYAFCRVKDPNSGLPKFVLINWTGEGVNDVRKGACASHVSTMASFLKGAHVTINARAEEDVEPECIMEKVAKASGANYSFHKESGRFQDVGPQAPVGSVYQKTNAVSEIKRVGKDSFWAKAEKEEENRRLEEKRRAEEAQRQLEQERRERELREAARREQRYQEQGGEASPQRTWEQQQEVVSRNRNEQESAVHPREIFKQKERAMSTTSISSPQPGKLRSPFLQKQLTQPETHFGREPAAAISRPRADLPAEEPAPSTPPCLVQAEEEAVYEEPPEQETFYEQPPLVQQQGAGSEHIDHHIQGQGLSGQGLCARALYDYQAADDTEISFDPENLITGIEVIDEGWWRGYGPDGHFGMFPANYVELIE
UniProt Q9UJW0, whole entry, looked up: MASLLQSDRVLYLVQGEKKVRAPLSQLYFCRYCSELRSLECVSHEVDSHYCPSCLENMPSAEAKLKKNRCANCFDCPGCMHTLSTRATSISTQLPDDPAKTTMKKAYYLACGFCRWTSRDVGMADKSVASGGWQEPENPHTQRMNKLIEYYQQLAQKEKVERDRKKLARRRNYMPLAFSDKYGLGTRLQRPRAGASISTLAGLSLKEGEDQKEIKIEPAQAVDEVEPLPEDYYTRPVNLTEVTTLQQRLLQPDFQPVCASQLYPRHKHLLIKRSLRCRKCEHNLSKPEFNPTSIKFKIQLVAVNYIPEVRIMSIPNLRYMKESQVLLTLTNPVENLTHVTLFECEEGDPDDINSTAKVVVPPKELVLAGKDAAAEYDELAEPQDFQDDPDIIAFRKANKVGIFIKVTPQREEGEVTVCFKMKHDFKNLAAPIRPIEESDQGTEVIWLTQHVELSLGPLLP

How the values were obtained:
Assay in all cases: log2 fold change, soluble protein after heating vs DMSO (PISA); higher = thermal stabilisation; K562 lysate, 10 uM; active = over 0.2 and 3.5 SD of the protein, either way, in both replicates (recomputed)
erlotinib = compound: C#Cc1cccc(Nc2ncnc3cc(OCCOC)c(OCCOC)cc23)c1 [erlotinib]
How it was run: (§1)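 The values are log-two fold changes in thermal stability compared with solvent controls and come from duplicates. They were obtained by TMTpro 16plex LC-MS/MS, with channel sums equalised, on the supernatant after 21,000xg for 90 min. That supernatant came from crude K562 extract at 1 mg/mL protein treated with 10 μM compound for 30 min, heated for 3 min across 48°C-58°C, pooled and brought to 0.5% NP-40 at 4°C.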

[1] = compound: C/C(=N\NC(=O)C1=CC(=CC=C1)S(=O)(=O)N2CCOCC2)/C3=C(C=CC(=C3)Cl)O
How it was run: as §1

[2] = compound: C1=CC(=CC=C1C2=NC3=C(N2)C=C(C=C3)C(=O)N)OC4=CC=C(C=C4)Cl
How it was run: as §1

[3] = compound: C1=CC2=C(C=CC(=C2)/C=C\3/C(=O)NC(=NCC4=CC=CS4)S3)N=C1
How it was run: as §1

[4] = compound: C1=CC2=NC=CN=C2C=C1/C=C/3\C(=O)NC(=O)S3
How it was run: as §1

[5] = compound: C1=CC=C(C=C1)C2=NC(=C(N2)C3=CC=NC=C3)C4=CC(=C(C=C4)Cl)O
How it was run: as §1

[6] = compound: C1=CC=C2C(=C1)C3=NNC4=CC=CC(=C43)C2=O
How it was run: as §1

[7] = compound: C1CCN(C1)C(=O)NC2=CC=CC(=C2)NC3=NC=C(C(=N3)NCCC4=CN=CN4)Br
How it was run: as §1

[8] = compound: C1CN(CCC1(CC2=CC=C(C=C2)Cl)N)C3=NC=NC4=C3C=CN4
How it was run: as §1

IRAK-1-4 Inhibitor I = compound: C1COCCN1CCN2C3=CC=CC=C3N=C2NC(=O)C4=CC(=CC=C4)[N+](=O)[O-] [IRAK-1-4 Inhibitor I]
How it was run: as §1

ibrutinib = compound: C=CC(=O)N1CCC[C@@H](n2nc(-c3ccc(Oc4ccccc4)cc3)c3c(N)ncnc32)C1 [ibrutinib]
How it was run: as §1

[9] = compound: CC(=O)c1cnc2ccc(-c3cc(Cl)c(O)c(Cl)c3)nc2c1N[C@H]1CC[C@H](CN(C)C)CC1
How it was run: as §1

ralimetinib = compound: CC(C)(C)Cn1c(N)nc2ccc(-c3[nH]c(C(C)(C)C)nc3-c3ccc(F)cc3)nc21 [ralimetinib]
How it was run: as §1

[10] = compound: CC(C)(O)CC(=O)NCCn1ccc2ncnc(Nc3ccc(Oc4cccc(C(F)(F)F)c4)c(Cl)c3)c21
How it was run: as §1

[11] = compound: CC(C)C1=C2N=C(C=C(N2N=C1)NCC3=CC=CC=C3)NCCCCCCN
How it was run: as §1

[12] = compound: CC1=C(C(CC(=O)N1)C2=CC=C(C=C2)C(F)(F)F)C(=O)NC3=C(C=C4C(=C3)C=NN4)F
How it was run: as §1

[13] = compound: CC1=C(C2=C(C=C1)C(=O)C3=CC=CC=C3N2CCCN)C
How it was run: as §1

[14] = compound: CC1=C(C=C(C=C1)NC(=O)C2=CC(=CC=C2)C(C)(C)C#N)NC3=CC4=C(C=C3)N=CN(C4=O)C
How it was run: as §1

[15] = compound: CC1=C(C=C(C=C1)NC(=O)C2=CC(=CC=C2)N(C)C)NC(=O)C3=CC=C(C=C3)O
How it was run: as §1

[16] = compound: CC1=CC=C(C=C1)SC2=C3C=C(SC3=CN=C2)C(=O)N
How it was run: as §1

Measured: log2 fold change

DDHD2 (UniProt O94830)
inactive: erlotinib 0.017 | [1] -0.199 | [2] 0.017 | [3] 0.024 | [4] -0.001 | [5] -0.005 | [6] -0.018 | [7] 0.003 | [8] 0.025 | IRAK-1-4 Inhibitor I 0.012 | ibrutinib 0.005 | [9] -0.009 | ralimetinib 0.037 | [10] -0.016 | [11] -0.01 | [12] 0.023 | [13] -0.035 | [14] 0.026 | [15] 0.01 | [16] -0.008

DENR (UniProt O43583)
inactive: erlotinib -0.02 | [1] -0.011 | [2] 0.019 | [3] 0.008 | [4] 0.016 | [5] 0.009 | [6] -0.014 | [7] 0.027 | [8] 0.029 | IRAK-1-4 Inhibitor I -0.018 | ibrutinib 0.01 | [9] -0.002 | ralimetinib -0.035 | [10] 0.024 | [11] -0.045 | [12] -0.046 | [13] -0.004 | [14] -0.021 | [15] 0.005 | [16] 0.001

DENND4C (UniProt Q5VZ89)
inactive: erlotinib -0.01 | [1] -0.01 | [2] -0.018 | [3] 0.003 | [4] -0.059 | [5] -0.032 | [6] -0.013 | [7] -0.011 | [8] -0.025 | IRAK-1-4 Inhibitor I -0.002 | ibrutinib 0.023 | [9] -0.005 | ralimetinib 0.036 | [10] 0.014 | [11] 0.034 | [12] -0.024 | [13] -0.017 | [14] -0.001 | [15] 0.032 | [16] 0.013

DCP1A (UniProt Q9NPI6)
inactive: erlotinib 0.038 | [1] 0.025 | [2] 0.03 | [3] 0.004 | [4] -0.03 | [5] 0.014 | [6] -0.033 | [7] 0.013 | [8] 0.012 | IRAK-1-4 Inhibitor I -0.045 | ibrutinib 0 | [9] -0.016 | ralimetinib 0.004 | [10] -0.042 | [11] 0.025 | [12] 0.013 | [13] -0.02 | [14] 0.046 | [15] 0.011 | [16] 0

DBN1 (UniProt Q16643)
inactive: erlotinib 0.004 | [1] -0.03 | [2] 0.037 | [3] -0.027 | [4] -0.006 | [5] 0.031 | [6] -0.02 | [7] 0.022 | [8] 0.013 | IRAK-1-4 Inhibitor I 0.026 | ibrutinib 0.008 | [9] -0.007 | ralimetinib 0.006 | [10] -0.029 | [11] 0.009 | [12] 0.018 | [13] 0.012 | [14] 0.029 | [15] 0.003 | [16] -0.03

CYP24A1 (UniProt Q07973)
inactive: erlotinib 0.015 | [1] 0.058 | [2] 0.148 | [3] -0.09 | [4] -0.083 | [5] -0.008 | [6] -0.135 | [7] -0.05 | [8] -0.011 | IRAK-1-4 Inhibitor I 0.07 | ibrutinib 0.01 | [9] -0.036 | ralimetinib -0.03 | [10] -0.159 | [11] 0.019 | [12] -0.05 | [13] -0.051 | [14] 0.183 | [15] 0.007 | [16] -0.067

DBR1 (UniProt Q9UK59)
inactive: erlotinib -0.024 | [1] -0.022 | [2] 0.032 | [3] 0.024 | [4] 0.008 | [5] 0 | [6] 0.007 | [7] -0.03 | [8] -0.016 | IRAK-1-4 Inhibitor I 0.001 | ibrutinib -0.013 | [9] 0.006 | ralimetinib 0.049 | [10] -0.012 | [11] -0.025 | [12] -0.002 | [13] 0.017 | [14] -0.012 | [15] -0.022 | [16] 0.024

CZIB (UniProt Q9NWV4)
inactive: erlotinib -0.005 | [1] -0.076 | [2] -0.035 | [3] -0.028 | [4] 0.015 | [5] -0.014 | [6] 0.054 | [7] 0.024 | [8] -0.024 | IRAK-1-4 Inhibitor I 0.009 | ibrutinib 0.002 | [9] 0.001 | ralimetinib -0.003 | [10] 0.026 | [11] -0.002 | [12] 0.001 | [13] 0.05 | [14] -0.008 | [15] 0.002 | [16] -0.053

DCAF6 isoform 3 (UniProt Q58WW2)
inactive: erlotinib -0.05 | [1] 0.024 | [2] 0.008 | [3] 0.03 | [4] -0.015 | [5] -0.008 | [6] -0.017 | [7] -0.003 | [8] -0.013 | IRAK-1-4 Inhibitor I -0.009 | ibrutinib 0.046 | [9] 0.008 | ralimetinib 0.031 | [10] -0.008 | [11] -0.005 | [12] 0.012 | [13] 0.015 | [14] -0.022 | [15] 0.012 | [16] -0.008

Random excerpt: 2 entries already listed.
DCAF6 isoform 3 (UniProt Q58WW2)
inactive: erlotinib -0.05 | [1] 0.024 | [2] 0.008 | [3] 0.03 | [4] -0.015 | [5] -0.008 | [6] -0.017 | [7] -0.003 | [8] -0.013 | IRAK-1-4 Inhibitor I -0.009 | ibrutinib 0.046 | [9] 0.008 | ralimetinib 0.031 | [10] -0.008 | [11] -0.005 | [12] 0.012 | [13] 0.015 | [14] -0.022 | [15] 0.012 | [16] -0.008

CYP24A1 (UniProt Q07973)
inactive: erlotinib 0.015 | [1] 0.058 | [2] 0.148 | [3] -0.09 | [4] -0.083 | [5] -0.008 | [6] -0.135 | [7] -0.05 | [8] -0.011 | IRAK-1-4 Inhibitor I 0.07 | ibrutinib 0.01 | [9] -0.036 | ralimetinib -0.03 | [10] -0.159 | [11] 0.019 | [12] -0.05 | [13] -0.051 | [14] 0.183 | [15] 0.007 | [16] -0.067

Further entries:

DENND10 (UniProt Q8TCE6)
inactive: erlotinib 0.202 | [1] 0 | [2] -0.039 | [3] -0.026 | [4] -0.02 | [5] 0.039 | [6] -0.031 | [7] -0.044 | [8] 0.014 | IRAK-1-4 Inhibitor I 0.039 | ibrutinib -0.027 | [9] 0.019 | ralimetinib -0.022 | [10] -0.066 | [11] -0.006 | [12] -0.024 | [13] 0.027 | [14] 0.095 | [15] -0.047 | [16] -0.021

DDAH2 (UniProt O95865)
inactive: erlotinib -0.035 | [1] -0.016 | [2] -0.04 | [3] -0.017 | [4] 0.043 | [5] 0.022 | [6] -0.016 | [7] -0.024 | [8] 0.013 | IRAK-1-4 Inhibitor I 0.013 | ibrutinib 0.018 | [9] -0.023 | ralimetinib -0.004 | [10] -0.005 | [11] 0.002 | [12] -0.054 | [13] -0.019 | [14] -0.003 | [15] -0.046 | [16] 0.007

DCAF11 (UniProt Q8TEB1)
inactive: erlotinib -0.037 | [1] -0.005 | [2] 0.032 | [3] -0.01 | [4] -0.026 | [5] 0.022 | [6] 0.016 | [7] 0.002 | [8] 0.063 | IRAK-1-4 Inhibitor I 0.01 | ibrutinib 0.101 | [9] -0.015 | ralimetinib -0.009 | [10] -0.02 | [11] 0.037 | [12] 0.035 | [13] -0.021 | [14] 0.019 | [15] -0.024 | [16] 0.033

DBNL isoform 3 (UniProt Q9UJU6)
inactive: erlotinib -0.016 | [1] 0.055 | [2] 0.036 | [3] -0.018 | [4] 0.029 | [5] 0.018 | [6] -0.01 | [7] 0.018 | [8] -0.006 | IRAK-1-4 Inhibitor I 0.003 | ibrutinib -0.015 | [9] -0.011 | ralimetinib -0.014 | [10] -0.005 | [11] -0.029 | [12] -0.012 | [13] 0.006 | [14] -0.018 | [15] 0.002 | [16] -0.013

DCTN4 (UniProt Q9UJW0)
inactive: erlotinib -0.009 | [1] -0.246 | [2] 0.017 | [3] 0.011 | [4] 0.003 | [5] -0.003 | [6] 0.027 | [7] -0.026 | [8] 0.013 | IRAK-1-4 Inhibitor I -0.015 | ibrutinib 0.051 | [9] 0.008 | ralimetinib 0.023 | [10] -0.038 | [11] -0.007 | [12] -0.009 | [13] -0.037 | [14] 0.022 | [15] -0.024 | [16] -0.012

DCTN2 (UniProt Q13561)
inactive: erlotinib -0.17 | [1] 0.005 | [2] 0.128 | [3] -0.038 | [4] 0.157 | [5] -0.005 | [6] 0.044 | [7] 0.041 | [8] 0.077 | IRAK-1-4 Inhibitor I 0.08 | ibrutinib -0.005 | [9] 0.031 | ralimetinib 0.105 | [10] -0.001 | [11] -0.115 | [12] -0.193 | [13] -0.02 | [14] -0.37 | [15] 0 | [16] -0.127
